The target in assay [1] is N-terminal Flag tagged DEPTOR PDZ domain (UniProt Q8TB45). The assay is described as follows: co-IP; HEK293T cells cotransfected; starved O/N, then 10% FBS alone or with MG132 for 4 h (or starvation only); Flag-tagged bait pulled down with anti-Flag magnetic beads, HA-tagged partner detected by western blot with anti-HA antibody. For orientation: In western blotting, separated proteins are transferred to a membrane and probed.

By UniProt entry, the sequences of proteins in these tests, tags left out. Where a name states a change or a piece, a line headed by the entry shows the natural chain unless it says otherwise. Chains listed by the source or under a name are the forms on record and can include a tag or linker. Residues count along the entry.
UniProt Q8TB45: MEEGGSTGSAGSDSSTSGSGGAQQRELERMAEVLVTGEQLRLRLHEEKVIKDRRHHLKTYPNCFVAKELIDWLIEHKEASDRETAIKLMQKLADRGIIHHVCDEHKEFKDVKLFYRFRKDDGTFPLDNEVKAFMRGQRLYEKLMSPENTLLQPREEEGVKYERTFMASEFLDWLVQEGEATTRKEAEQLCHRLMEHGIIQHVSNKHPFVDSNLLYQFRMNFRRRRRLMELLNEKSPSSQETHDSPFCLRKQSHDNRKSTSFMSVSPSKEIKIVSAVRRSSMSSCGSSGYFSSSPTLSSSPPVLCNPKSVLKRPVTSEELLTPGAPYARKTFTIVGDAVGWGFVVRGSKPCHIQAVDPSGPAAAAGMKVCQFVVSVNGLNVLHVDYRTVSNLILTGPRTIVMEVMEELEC
N-terminal Flag tagged DEPTOR PDZ domain: residues 330-407 of Q8TB45
UniProt Q9GZV5: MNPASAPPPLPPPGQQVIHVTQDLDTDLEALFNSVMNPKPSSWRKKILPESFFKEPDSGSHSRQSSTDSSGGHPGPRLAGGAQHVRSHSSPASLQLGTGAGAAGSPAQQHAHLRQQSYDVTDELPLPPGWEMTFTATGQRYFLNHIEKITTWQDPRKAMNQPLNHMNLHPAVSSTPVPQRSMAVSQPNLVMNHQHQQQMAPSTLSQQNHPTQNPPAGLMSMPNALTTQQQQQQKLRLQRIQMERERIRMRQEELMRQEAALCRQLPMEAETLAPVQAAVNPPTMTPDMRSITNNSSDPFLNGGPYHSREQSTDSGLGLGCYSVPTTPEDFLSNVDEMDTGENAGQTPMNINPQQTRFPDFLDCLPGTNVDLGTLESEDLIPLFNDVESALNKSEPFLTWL
UniProt Q03431, residues 27-593: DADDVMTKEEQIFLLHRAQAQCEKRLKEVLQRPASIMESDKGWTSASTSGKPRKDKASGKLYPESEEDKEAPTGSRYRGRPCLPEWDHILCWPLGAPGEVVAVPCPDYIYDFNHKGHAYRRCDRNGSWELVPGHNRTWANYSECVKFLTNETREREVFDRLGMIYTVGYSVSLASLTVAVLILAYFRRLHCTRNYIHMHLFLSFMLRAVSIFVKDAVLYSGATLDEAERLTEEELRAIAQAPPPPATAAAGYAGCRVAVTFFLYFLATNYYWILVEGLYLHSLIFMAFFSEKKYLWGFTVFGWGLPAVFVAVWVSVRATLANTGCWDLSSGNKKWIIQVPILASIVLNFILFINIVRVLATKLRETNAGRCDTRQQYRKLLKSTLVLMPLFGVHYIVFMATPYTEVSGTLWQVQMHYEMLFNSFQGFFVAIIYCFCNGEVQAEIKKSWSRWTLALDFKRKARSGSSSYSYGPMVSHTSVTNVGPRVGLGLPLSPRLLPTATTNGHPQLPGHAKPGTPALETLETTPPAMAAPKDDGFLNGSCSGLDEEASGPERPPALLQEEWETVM

Assay [2] deals with N-terminal Flag tagged DEPTOR (UniProt Q8TB45). The assay is described as above.
The target of the next assay is N-terminal HA tagged TAZ (UniProt Q9GZV5). In words: co-IP; HEK293T cells cotransfected; starved O/N, then 10% FBS alone or with MG132 for 4 h (or starvation only); HA-tagged bait pulled down with anti-HA magnetic beads, Flag-tagged partner detected by western blot with anti-Flag antibody.

This note sets out measurements from publication PMC9885499.

No constants are given. Whether binding was seen depends on the method and setting. In cells and extracts the contact can be indirect. Some results given as binding are weak or reduced against the parent protein; the word gives no strength.

For the substance “N-terminal HA tagged PTH1R (from UniProt Q03431 27-593) (receptor)”, the binding entry in assay [1] and in assay [2] was “binds” each time.

On to “N-terminal Flag tagged DEPTOR (from UniProt Q8TB45 1-409)”, for which the binding entry with N-terminal HA tagged TAZ is given as “binds”.
